# Source: patent US20120003180A1
# By UniProt entry, the sequences of proteins in these tests, tags left out. Where a name states a change or a piece, a line headed by the entry shows the natural chain unless it says otherwise.
# UniProt P11688: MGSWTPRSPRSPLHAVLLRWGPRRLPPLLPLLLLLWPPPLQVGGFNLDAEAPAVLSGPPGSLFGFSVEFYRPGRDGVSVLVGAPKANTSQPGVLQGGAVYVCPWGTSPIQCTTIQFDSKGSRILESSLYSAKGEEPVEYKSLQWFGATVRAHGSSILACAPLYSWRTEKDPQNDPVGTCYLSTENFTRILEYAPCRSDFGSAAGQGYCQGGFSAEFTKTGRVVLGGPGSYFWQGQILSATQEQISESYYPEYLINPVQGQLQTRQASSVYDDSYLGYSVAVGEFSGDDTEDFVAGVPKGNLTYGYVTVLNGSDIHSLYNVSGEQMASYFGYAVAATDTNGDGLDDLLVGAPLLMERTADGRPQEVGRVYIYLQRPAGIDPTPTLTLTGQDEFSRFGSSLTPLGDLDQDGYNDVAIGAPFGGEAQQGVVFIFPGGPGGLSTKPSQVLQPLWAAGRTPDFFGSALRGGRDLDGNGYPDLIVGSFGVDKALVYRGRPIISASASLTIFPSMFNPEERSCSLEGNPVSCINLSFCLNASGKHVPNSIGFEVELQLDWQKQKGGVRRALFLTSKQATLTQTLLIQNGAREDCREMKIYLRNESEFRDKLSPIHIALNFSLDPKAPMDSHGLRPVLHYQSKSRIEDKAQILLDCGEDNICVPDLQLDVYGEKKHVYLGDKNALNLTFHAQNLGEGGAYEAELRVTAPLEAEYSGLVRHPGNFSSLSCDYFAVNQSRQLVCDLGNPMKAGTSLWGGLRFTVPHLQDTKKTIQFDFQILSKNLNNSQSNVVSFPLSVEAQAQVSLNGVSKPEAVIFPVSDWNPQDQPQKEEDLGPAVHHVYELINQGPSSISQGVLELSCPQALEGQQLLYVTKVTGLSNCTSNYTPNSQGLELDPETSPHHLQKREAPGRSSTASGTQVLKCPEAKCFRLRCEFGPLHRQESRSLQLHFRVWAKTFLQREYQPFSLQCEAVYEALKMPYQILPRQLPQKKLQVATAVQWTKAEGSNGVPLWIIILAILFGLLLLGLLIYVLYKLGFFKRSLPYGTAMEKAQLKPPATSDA
# UniProt P09055: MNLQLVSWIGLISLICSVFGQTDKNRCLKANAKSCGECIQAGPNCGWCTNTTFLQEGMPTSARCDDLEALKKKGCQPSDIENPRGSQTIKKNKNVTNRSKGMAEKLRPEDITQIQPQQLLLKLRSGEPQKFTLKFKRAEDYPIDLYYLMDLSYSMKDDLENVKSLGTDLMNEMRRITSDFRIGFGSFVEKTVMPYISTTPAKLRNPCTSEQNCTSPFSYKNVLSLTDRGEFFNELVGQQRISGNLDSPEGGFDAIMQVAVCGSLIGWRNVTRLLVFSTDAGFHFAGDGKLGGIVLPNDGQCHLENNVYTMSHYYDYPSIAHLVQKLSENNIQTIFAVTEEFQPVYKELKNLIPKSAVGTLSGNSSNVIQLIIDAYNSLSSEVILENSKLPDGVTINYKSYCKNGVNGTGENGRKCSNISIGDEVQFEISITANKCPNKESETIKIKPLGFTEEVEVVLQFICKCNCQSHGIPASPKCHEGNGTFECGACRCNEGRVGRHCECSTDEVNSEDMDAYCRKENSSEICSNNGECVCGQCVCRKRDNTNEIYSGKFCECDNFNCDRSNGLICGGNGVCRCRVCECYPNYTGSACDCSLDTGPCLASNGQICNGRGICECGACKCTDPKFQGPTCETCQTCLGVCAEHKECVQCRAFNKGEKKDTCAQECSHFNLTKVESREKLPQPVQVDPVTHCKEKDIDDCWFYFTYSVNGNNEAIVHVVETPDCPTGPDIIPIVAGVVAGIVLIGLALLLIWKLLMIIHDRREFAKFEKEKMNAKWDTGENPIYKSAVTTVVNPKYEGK
# No constants are given. Whether binding was seen depends on the method and setting. Some binding calls cover weakened binding; strength is not graded here.
# Legend:
# [1] = target: T1, α5β1 integrin on brain microvascular endothelial cells (mouse) (UniProt P11688+P09055); assay: co-immunocytochemistry (anti-α5β1 and anti-HIS) on brain endothelial cells
# [2] = target: T1, α5β1 integrin on brain microvascular endothelial cells (mouse); assay: co-immunocytochemistry of brain endothelial cells after 30 minutes of DV treatment (FIG. 4F legend)
substance,measurement,setting,value
"Human perlecan Domain V (DV), recombinant, with C-terminal 6×His tag (from UniProt P98160 3687-4391) (ligand)",binding,[1],binds
same,binding,[2],binds
